In US20250066503A1, “CELL INJURY INDUCING THERAPEUTIC DRUG FOR USE IN CANCER THERAPY” (CHUGAI SEIYAKU KABUSHIKI KAISHA, priority 2016, published 2025):
Numbering of substitutions follows the chain as printed.

B1: antibody-8: anti-human CD3ε chain and anti-human GPC3 bispecific antibody (antibody)
heavy: EVQLVETGGSLVQPGKSLKLTCATSGFTFSNAWMHWVRQSPEKQLEWVAQIKAKSNNYATYYAESVKGRFTISRDDSKSNIYLQMNSLKEEDTAVYYCRYVHYGAYYGVDAWGQGTSVTVSSASTKGPSVFPLAPSSKSTSGGTAALGCLVKDYFPEPVTVSWNSGALTSGVHTFPAVLQSSGLYSLSSVVTVPSSSLGTQTYICNVNHKPSNTKVDKKVEPKSCDKTHTCPPCPAPEAAGGPSVFLFPPKPKDTLMISRTPEVTCVVVDVSHEDPEVKFNWYVDGVEVHNAKTKPREEQYASTYRVVSVLTVLHQDWLNGKEYKCKVSNKALPAPIEKTISKAKGQPREPQVYTLPPSRCELTKNQVSLSCAVKGFYPSDIAVEWESNGQPENNYKTTPPVLDSDGSFFLVSKLTVDKSRWQQGNVFSCSVMHEALHNHYTQKSLSLSPDYKDDDDK
light: DVVMTQTPVSMSVSLGGQVSISCRSSQSLVHNNGNTYVSWYIQKPSQSPQLLIYKVSNRFSGISDRFSGSGSGTDFTLKISRVEPDDLGVYYCGQGTQDPYTFGAGTKLELKRTVAAPSVFIFPPSDEQLKSGTASVVCLLNNFYPREAKVQWKVDNALQSGNSQESVTEQDSKDSTYSLSSTLTLSKADYEKHKVYACEVTHQGLSSPVTKSFNRGEC
chain 1: DIVMTQSPLSLPVTPGEPASISCRSSQSLVHSNRNTYLHWYQQKPGQAPRLLIYKVSNRFSGVPDRFSGSGSGTDFTLKISRVEAEDVGVYYCSQNTHVPPTFGQGTKLEIKSSASTKGPSVFPLAPSSKSTSGGTAALGCLVKDYFPEPVTVSWNSGALTSGVHTFPAVLQSSGLYSLSSVVTVPSSSLGTQTYICNVNHKPSNTKVDKKVEPKSCDKTHTCPPCPAPEAAGGPSVFLFPPKPKDTLMISRTPEVTCVVVDVSHEDPEVKFNWYVDGVEVHNAKTKPREEQYASTYRVVSVLTVLHQDWLNGKEYKCKVSNKALPAPIEKTISKAKGQPREPQVCTLPPSRDELTKNQVSLWCLVKGFYPSDIAVEWESNGQPENNYKTTPPVLDSDGSFFLYSKLTVDKSRWQQGNVFSCSVMHEALHNHYTQKSLSLSPHHHHHHHH
chain 2: QVQLVQSGAEVKKPGASVKVSCKASGYTFTDYEMHWIRQPPGQGLEWIGAIDGKTPDTAYSQKFKGRVTLTADKSTSTAYMELSSLTSEDTAVYYCTRFYSYTYWGQGTLVTVSSASVAAPSVFIFPPSDEQLKSGTASVVCLLNNFYPREAKVQWKVDNALQSGNSQESVTEQDSKDSTYSLSSTLTLSKADYEKHKVYACEVTHQGLSSPVTKSFNRGEC
B2: antibody-19: optimized anti-human CD3ε chain and anti-human GPC3 bispecific antibody (antibody)
heavy 1: QVQLVESGGGLVQPGRSLRLSCAASGFTFSNAWMHWVRQAPGKGLEWVAQIKDKSQNYATYYAESVKGRFTISRADSKNSIYLQMNSLKTEDTAVYYCRYVHYSASYGVDAWGQGTTVTVSSASTKGPSVFPLAPCSRSTSESTAALGCLVKDYFPEPVTVSWNSGALTSGVHTFPAVLQSSGLYSLSSVVTVPSSSLGTKTYTCNVDHKPSNTKVDKRVESKYGPPCPPCPAPEFRGGPKVFLFPPKPKDTLMISRTPEVTCVVVDVSQEDPEVQFNWYVDGVEVHNAKTKPREEQFASTYRVVSVLTVLHQDWLNGKEYKCKVSNKGLPSSIEKTISKAKGQPREPQVYTLPPSQKEMTKNQVSLTCLVKGFYPSDIAVEWESNGQPENNYKTTPPVLDSDGSFFLYSKLTVDKSRWQEGNVFSCSVMHEALHNRYTQKSLSLSP
heavy 2: QVQLVQSGAEVKKPGASVKVSCKASGYTFTDYEMHWIRQPPGQGLEWIGAIDGKTPDTAYSQKFKGRVTLTADKSTSTAYMELSSLTSEDTAVYYCTRFYSYTYWGQGTLVTVSSASTKGPSVFPLAPCSRSTSESTAALGCLVKDYFPEPVTVSWNSGALTSGVHTFPAVLQSSGLYSLSSVVTVPSSSLGTQTYTCNVDHKPSNTKVDKRVESKYGPPCPPCPAPEFRGGPKVFLFPPKPKDTLMISRTPEVTCVVVDVSQEDPEVQFNWYVDGVEVHNAKTKPREEQFASTYRVVSVLTVLHQDWLNGKEYKCKVSNKGLPSSIEKTISKAKGQPREPQVYTLPPSQEEMTKNQVSLTCLVKGFYPSDIAVEWESNGQPENNYKTTPPVLDSDGSFFLYSKLTVDKSRWQEGNVFSCSVMHEALHNHYTQESLSLSP
light: DIVMTQSPLSLPVTPGEPASISCRSSQSPVHSNRNTYIHWYQQKPGQAPRLLIYKVSNRFSGVPDRFSGSGSGTDFTLKISRVEAEDVGVYYCYQGTQVPYTFGQGTKLEIKRTVAAPSVFIFPPSDEQLKSGTASVVCLLNNFYPREAKVQWKVDNALQSGNSQESVTEQDSKDSTYSLSSTLTLSKADYEKHKVYACEVTHQGLSSPVTKSFNRGEC
B3: antibody-26: optimized anti-human CD3ε chain and anti-human GPC3 bispecific antibody (antibody)
heavy 1: B2 heavy 1 with A75D, I81L, S104A
heavy 2: B2 heavy 2 with K19T, Q43E, K54E, Q62E
light: B2 light with S25P, I38L
B4: antibody-33: optimized anti-human CD3ε chain and anti-human GPC3 bispecific antibody (antibody)
heavy 1: B2 heavy 1 with A75D, I81L, S104A, S106G
heavy 2: B2 heavy 2 with K19T, Q43E, K54P, Q62E
light: B2 light with S28P, P29L, I38L, Y94G
B5: antibody-16: optimized anti-human CD3ε chain and anti-human GPC3 bispecific antibody (antibody)
heavy 1: B2 heavy 1
heavy 2: B2 heavy 2
light: B2 light with I38L, S61R, Y94G
B6: antibody-37: optimized anti-human CD3ε chain and anti-human GPC3 bispecific antibody (antibody)
heavy 1: B2 heavy 1 with L11V, R16G, Y62V, S104A, S106G, A111I
heavy 2: B2 heavy 2 with K19T, Q43E, K54P, Q62E
light: B2 light with S28P, P29L, I38L, Y94G

Tested on: extracellular matrix (BD Matrigel)
Experiment: Assessment of the ECM-binding ability (ECL on BD Matrigel)
Settings: fluorescence intensity relative to standard antibody MRAH-G1d/MRAL-k0

With B1 as the molecule, how does the “ECM binding ratio (standard = 1)” value read?
The value was 4.6.

For B2, which “ECM binding ratio (standard = 1)” value is on record?
The value was 7.4.

How did the “ECM binding ratio (standard = 1)” value turn out when B3 was run?
Its value is 3.3.

For B4, which “ECM binding ratio (standard = 1)” value is on record?
The value was 1.7.

For B5, which “ECM binding ratio (standard = 1)” value is on record?
The value was 4.4.

For B6, which “ECM binding ratio (standard = 1)” value is on record?
The value was 2.5.
